Test [1] concerns the target T1, biotin-tagged DnaA (bio-DnaA) (Escherichia coli, UniProt P03004 1-467, biotin (biotin-tagged)).
T1 construct: DnaA, chromosomal replication initiator of Escherichia coli; also called bio-DnaA (Full); source: purified, as reported (Ishida et al., 2004)
T1 sequence (looked up): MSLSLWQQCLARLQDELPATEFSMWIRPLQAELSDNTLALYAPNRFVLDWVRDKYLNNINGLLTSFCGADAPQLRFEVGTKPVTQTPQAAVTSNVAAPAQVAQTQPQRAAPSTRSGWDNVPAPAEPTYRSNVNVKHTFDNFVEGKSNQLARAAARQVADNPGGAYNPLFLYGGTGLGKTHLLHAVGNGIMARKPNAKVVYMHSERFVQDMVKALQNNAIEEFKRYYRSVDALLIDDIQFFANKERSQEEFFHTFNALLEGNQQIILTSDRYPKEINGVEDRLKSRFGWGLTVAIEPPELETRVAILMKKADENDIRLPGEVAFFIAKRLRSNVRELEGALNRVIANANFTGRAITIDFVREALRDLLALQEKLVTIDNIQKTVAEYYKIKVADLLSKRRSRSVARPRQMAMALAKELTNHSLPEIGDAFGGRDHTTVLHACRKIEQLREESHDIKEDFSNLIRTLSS
Nature of the test: pull-down; bio-DnaA or its truncated forms (10 pmol) with soluble extract of MG1655 carrying pQRST in buffer C (20 uL; 50 mM Hepes-KOH pH 7.6, 100 mM KCl, 10 mM magnesium acetate, 10 uM ATP), 5 min on ice, then 1 h at 4°C with streptavidin magnetic beads; SDS-13% PAGE, silver staining; only the target ….

Test [2] has as its target T2, DnaA (native, wild-type) (Escherichia coli, UniProt P03004 1-467).
T2 construct: DnaA, chromosomal replication initiator of Escherichia coli; called native, intact, wild-type DnaA; Untagged; In the bio-oriC pull-downs it stood as DnaA complexes (multimers) formed on a biotin-tagged oriC DNA fragment; also called native DnaA; wild-type DnaA (WT); source: purified
T2 sequence (looked up): T1 sequence (looked up)
Kind of test: pull-down; DnaA (7.5 pmol) with biotin-tagged oriC fragment (100 fmol), then protein extracts of cells carrying pQRST or pBAD18, on ice; streptavidin beads; SDS-12% PAGE, silver staining; only the target purified.

For four molecules, binding results are on record in publication PMC4776307, “The Escherichia coli Cryptic Prophage Protein YfdR Binds to DnaA and Initiation of Chromosomal Replication Is Inhibited by Overexpression of the Gene Cluster yfdQ-yfdR-yfdS-yfdT” (Frontiers in Microbiology, 2016).

Results are given in words; binding and its absence hold for the method and conditions named. In cells and extracts the contact can be indirect. Some binding calls cover weakened binding; strength is not graded here. For some assays here: Tags and fused reporters may be left off the sequences shown.

B1: YfdT (protein, UniProt P76516 1-101)
chain: MTTFTNKELIKEIKERISSLEVRDDIERRAYEIALVSLEVEPDEREAYELFMEKRFGDLVDRRRAKNGDNEYMAWDMTLGWIIWQQRAGIHFSTMSQQEVK
For B1, the binding result in test [1] was “no binding”.

B2: YfdS (protein, UniProt P76515 1-120)
chain: MRMNVFEMEGFLRGKCVPRDLKVNETNAEYLVRKFDALEAKCAALENKIIPVSAELPPANESVLLFDANGEGWLIGWRSLWYTWGQKETGEWQWTFQVGDLENVNITHWAVMPKAPEAGA
On to B2, for which the binding result in test [1] is given as “no binding”.

B3: His-tagged YfdR (His-YfdR) (natural protein, Escherichia coli, UniProt P76514 1-178, looked up)
chain: MSFIKTFSGKHFYYDKINKDDIVINDIAVSLSNICRFAGHLSHFYSVAQHAVLCSQLVPQEFAFEALMHDATEAYCQDIPAPLKRLLPDYKRMEEKIDAVIREKYGLPPVMSTPVKYADLIMLATERRDLGLDDGSFWPVLEGIPATEMFNVIPLAPGHAYGMFMERFNDLSELRKCA
notes: YfdR of the cryptic prophage CPS-53 of Escherichia coli; amplified from pSSP with a forward primer that begins at the ATG of yfdR (nogu10) and nogu11, cloned NheI-EcoRI into pBAD/HisB; also called purified YfdR; source: E. coli MC1061 carrying pYfdR (pBAD/HisB), arabinose-induced, purified (Ni-NTA agarose)
As to B3, the binding entry in test [2] and in test [1] was “binds” in each case.

B4: YfdQ (protein, UniProt P76513 1-274)
chain: MSQNLDATAINQIHALISAQGVNEIISKIGADAVALPENFRIHDLEKFNLNRFRFRGALSTASIDDFTRYSKDLADEGTRCFIDADNMRAVSVLNLGTIDEPGHADNTATLKLKKTAPFSALLSVNGERNSQKSLAEWIEDWADYLVGFDANGDAIQATKAAAAIRKITIEANQTADFEDNDFSGKRSLMESVEAKTKDIMPVAFEFKCVPFEGLKERPFKLRLSIITGDRPVLVLRIIQLEAVQEDMANEFRDLLVEKFKDSKVETFIGTFTA
For B4, the binding entry in test [1] was “no binding”.
